{
  "source": "patent US20190160049A1",
  "about": "“2-OXO-1,2-DIHYDROPYRIDINE-3-CARBOXAMIDE COMPOUNDS AND THEIR USE AS DUAL INHIBITORS OF PDK1/AURA” (INTERNATIONAL SOCIETY FOR DRUG DEVELOPMENT S.R.L., priority 2016, published 2019)",
  "key": {"[1]": {"test_system": "CSCs (stem cell marker nestin, neuronal marker MAP, glial marker GFAP)", "test": "CSC differentiation, real time PCR of nestin, MAP, GFAP mRNA", "type": "cell-based", "conditions": "seven days, SA16 10 μM"}, "[2]": {"test_system": "CSC neurospheres", "test": "Sphere-derived cell morphology (neurosphere area, outgrowth of cellular processes)", "type": "cell-based", "conditions": "seven days, SA16 10 nM, 1 μM, 10 μM", "experimental": "FIG. 5 illustrates the effects of SA16 on sphere-derived cell morphology of Example 3c. CSCs were treated for seven days with complete NSC medium containing DMSO (control), or SA16 (10 nM, 1 μM, 10 μM) (A) Representative cell micrographs of control and SA16 (10 μM) after seven days of treatment are shown. The area of the culture plates occupied by the spheres (B) and the length of cellular processes (C) were scored after seven days of treatment. The counts represent the mean values±SEM of two independent experiments. The significance of differences was determined with a one-way ANOVA with Bonferroni post-test: * p<0.05, ** p<0.01, *** p<0.001 vs. control cells.\nFIG. 7 illustrates the effects of MP7, Alisertib and of their combined treatment on sphere-derived cell morphology of example 3c. […] The area of the culture plates occupied by the spheres (B) and the length of cellular processes (C) were scored after seven days of treatment. […] The significance of differences was determined with a one-way ANOVA with Bonferroni post-test: * p<0.05, *** p<0.001 vs. control cells; ## p<0.01 vs. cells treated with MP7 alone; § p<0.05 vs. cells treated with Alisertib alone.\nThe effects of SA16 on morphology of neurospheres were evaluated by quantifying the area occupied by the cells in culture plates, as well as the outgrowth of cellular processes. […]"}},
  "note": "At least one compound was matched to its structure with a doubt left.",
  "data": [
    {"smiles": "O=C1Nc2ccc(NC(=O)[C@H](NC(=O)c3cccn(Cc4ccc(F)c(F)c4)c3=O)c3ccccc3)cc2/C1=C/c1cnc[nH]1", "note": "[SA16, (Z)—(R)—N-(2-((3-((1H-imidazol-5-yl)methylene)-2-oxoindolin-5-yl)amino)-2-oxo-1-phenylethyl)-1-(3,4-difluorobenzyl)-2-oxo-1,2-dihydropyridine-3-carboxamide]", "values": [
      {"measurement": "CSC differentiation by real time PCR", "setting": "[1]", "value": "able to promote CSC toward both a neuronal and a glial phenotype"},
      {"measurement": "outgrowth of cellular processes", "setting": "[2]; 1.5 μM Alisertib", "value": "prominent outgrowth of processes"},
      {"measurement": "area occupied by the neurospheres", "setting": "[2]; 2.5 PIM MP7, 1.5 μM Alisertib", "value": "almost complete reduction in the area occupied by the neurospheres"}
    ]}
  ]
}
